These are yes or no findings as the source states them, for the method shown. For some assays here: In cells and extracts the contact can be indirect. Some entries that bind do so weakly or less than the wild type.
How the values were obtained:
[1] = target: TBPC, 181 C-terminal residues of human TATA box binding protein (TBP) (human) (UniProt P20226); experiment: SPR; single cycle kinetic assay, AF1 as analyte; data not shown; both purified
[2] = target: steroid receptor coactivator-1 (SRC-1) (human (endogenous in HeLa)) (UniProt Q15788); experiment: co-IP; SRC-1 antibody on protein A/G-agarose beads; HeLa nuclear extract (0.5 mg total protein) mixed with 10 µg purified AF1 and/or TBPC, 4°C; blot with GR AF1 antibody; only the binder purified

Sequences of proteins named here, by UniProt entry; tags and fusion partners are left off. Residues count along the entry.
UniProt P20226, residues 159-339: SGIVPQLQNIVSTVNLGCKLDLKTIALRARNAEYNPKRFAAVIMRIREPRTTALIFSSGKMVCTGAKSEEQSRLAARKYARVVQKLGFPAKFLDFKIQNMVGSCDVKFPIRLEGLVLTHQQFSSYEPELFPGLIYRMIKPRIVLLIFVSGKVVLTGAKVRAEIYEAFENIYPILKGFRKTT
UniProt Q15788: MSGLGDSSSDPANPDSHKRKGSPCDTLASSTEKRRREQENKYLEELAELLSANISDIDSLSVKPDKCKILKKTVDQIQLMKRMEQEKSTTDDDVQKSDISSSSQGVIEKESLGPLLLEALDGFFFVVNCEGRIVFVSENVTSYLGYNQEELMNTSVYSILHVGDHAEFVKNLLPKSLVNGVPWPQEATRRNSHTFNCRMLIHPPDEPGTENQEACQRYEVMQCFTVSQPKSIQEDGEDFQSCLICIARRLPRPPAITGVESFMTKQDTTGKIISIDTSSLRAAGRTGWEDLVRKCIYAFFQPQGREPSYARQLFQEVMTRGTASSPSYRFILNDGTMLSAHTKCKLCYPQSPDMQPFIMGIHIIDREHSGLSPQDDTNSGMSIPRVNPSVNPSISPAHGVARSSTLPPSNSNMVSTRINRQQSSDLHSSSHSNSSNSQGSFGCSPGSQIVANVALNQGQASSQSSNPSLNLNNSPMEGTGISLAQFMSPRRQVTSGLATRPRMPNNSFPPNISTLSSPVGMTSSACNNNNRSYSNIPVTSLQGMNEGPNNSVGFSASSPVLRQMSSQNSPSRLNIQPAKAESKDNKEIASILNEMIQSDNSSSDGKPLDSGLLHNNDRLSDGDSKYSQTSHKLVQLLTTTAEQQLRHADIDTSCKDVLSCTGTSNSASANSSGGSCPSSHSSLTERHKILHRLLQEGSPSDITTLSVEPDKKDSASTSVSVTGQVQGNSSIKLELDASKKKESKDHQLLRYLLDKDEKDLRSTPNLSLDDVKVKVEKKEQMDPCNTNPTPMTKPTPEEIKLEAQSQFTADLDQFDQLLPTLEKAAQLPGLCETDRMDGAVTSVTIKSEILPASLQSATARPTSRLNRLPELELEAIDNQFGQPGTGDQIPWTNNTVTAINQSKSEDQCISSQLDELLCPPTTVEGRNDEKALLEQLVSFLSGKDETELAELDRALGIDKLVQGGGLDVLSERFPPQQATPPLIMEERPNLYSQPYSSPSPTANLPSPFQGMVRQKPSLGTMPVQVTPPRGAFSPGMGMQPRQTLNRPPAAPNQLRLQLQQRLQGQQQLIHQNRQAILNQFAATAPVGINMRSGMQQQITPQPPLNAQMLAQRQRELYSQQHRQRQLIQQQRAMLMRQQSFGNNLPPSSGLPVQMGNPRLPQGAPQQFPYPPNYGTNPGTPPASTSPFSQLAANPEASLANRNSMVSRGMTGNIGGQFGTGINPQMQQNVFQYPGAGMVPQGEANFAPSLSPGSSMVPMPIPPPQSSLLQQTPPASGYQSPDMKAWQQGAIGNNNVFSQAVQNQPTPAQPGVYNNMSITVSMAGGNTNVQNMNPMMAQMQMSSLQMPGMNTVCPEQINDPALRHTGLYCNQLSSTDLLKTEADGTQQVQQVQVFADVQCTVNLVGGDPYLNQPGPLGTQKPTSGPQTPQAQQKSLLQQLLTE
UniProt P04150, residues 77-262: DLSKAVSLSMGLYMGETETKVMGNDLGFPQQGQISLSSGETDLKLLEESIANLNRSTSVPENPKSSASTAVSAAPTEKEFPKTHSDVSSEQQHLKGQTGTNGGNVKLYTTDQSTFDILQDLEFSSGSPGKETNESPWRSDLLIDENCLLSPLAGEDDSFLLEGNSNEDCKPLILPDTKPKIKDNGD

Substance: glucocorticoid receptor (GR) N-terminal activation function domain AF1 (from UniProt P04150 77-262) (domain or fragment)
- binding [1]: binds
- binding [2]: binds weakly
